In PubChem BioAssay AID504467 (National Center for Advancing Translational Sciences (NCATS), 2011):
Hit rate of the full screen: of about 330,000 compounds, about 7,700 (2.3%) were called active. The inconclusive results got no clear call from the source; some entries with a clear call stand among them for comparison. The call rests on the fitted dose curve; in most records, active means well fitted inhibition curve with a large enough effect; inconclusive means small, poorly fitted or top-dose-only effect, or effect the other way; inactive means flat fitted curve, though single readings scatter. Potencies beside an inconclusive call are fits to weak or partial responses and may not hold up.

experiment: qHTS screen for small molecules that inhibit ELG1-dependent DNA repair in human embryonic kidney (HEK293T) cells expressing luciferase-tagged ELG1; conditions: HEK293T ELG1-luciferase reporter, luminescence, 16 h, DNA damage induced by 5-fluorouridine; series mostly up to 46.1 µM; further: nearly all actives have a fitted effect of over 55% in size
Method in brief: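 5-Fluorouridine DNA damage + compound/DMSO, 2,000 cells/well, 16 h, 37 °C/5% CO2. ONE-Glo, 30 min RT, luminescence. Readout = decrease in reporter signal.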
Potency means the concentration at half of the fitted maximal effect.

| Compound | Potency |
| --- | --- |
| COC(=O)c1ccc2c(c1)C(=O)/C(=C/c1ccc(O)cc1)O2 | inconclusive: 20.6 µM [activator, single point] |
| COc1ccccc1NC(=O)c1ccccc1-c1nc(-c2ccccc2OC)no1 | inconclusive: 14.6 µM [inhibitor, single point] |
| Cn1ccnc1SCC(=O)Nc1ccc2c(c1)OCO2 | inconclusive: 29.1 µM [activator, single point] |
| COc1ccc(C(=O)c2sc(Nc3ccccc3)nc2N)cc1OC | inconclusive: 29.1 µM [inhibitor, single point] |
| CCOC(=O)C1C(=O)CC(C)(O)C(C(=O)OCC)C1c1ccc(N(CC)CC)cc1 (stereo not drawn) | inactive |
| Cc1nc2ccc(CCO)cc2s1 | inactive |
| CCOC(=O)c1csc(N/N=C2\CCc3ccccc32)n1 | inactive |
| CCOCCCn1c(=S)[nH]c2ncccc2c1=O | inconclusive: 0.517 µM [activator, single point] |
| O=C(N/N=C/c1c[nH]c2ccccc12)c1cc(Br)ccc1O | inactive |
| CC1CCCCN1S(=O)(=O)c1ccc(C(=O)Nc2nnc(-c3ccco3)o2)cc1 (stereo not drawn) | inconclusive: 16.4 µM [inhibitor, partial curve, poor fit] |
| CCc1ccc(Nc2n[n+](-c3ccccc3)c(/C=C/c3ccccc3)s2)cc1 | inconclusive: 7.3 µM [inhibitor, single point] |
| CCn1cc(/C=C/c2cc[n+](C)cc2)c2ccccc21 | active: 2.91 µM |
| N#Cc1ccc(C(=O)Nc2cccc(S(=O)(=O)NC3=NCCC3)c2)cc1 | inactive |
| Cc1ccc(N2CCCCn3c2nc2c3c(=O)[nH]c(=O)n2C)cc1 | inconclusive: 20.6 µM [inhibitor, single point] |
| COc1cc(CN(C)c2ncnc3sccc23)ccc1OC(F)F | inconclusive: 13 µM [inhibitor, partial curve] |
| Cc1cccc2cc(CN(Cc3cccs3)S(=O)(=O)c3ccc4c(c3)OCCO4)c(=O)[nH]c12 | inconclusive: 29.1 µM [inhibitor, single point] |
| CN(CC(=O)N1CCN(c2ccccn2)CC1)S(=O)(=O)c1ccccc1 | inconclusive: 18.4 µM [activator, single point] |
| CCc1ccc(-c2cc(C(=O)N/N=C/c3ccccn3)[nH]n2)cc1 | inactive |
| CCC(C(=O)NCCN1CCOCC1)n1c2ccccc2c2nc(=O)cc(C)n21 (stereo not drawn) | inactive |
| O=[N+]([O-])c1ccc(Sc2cccc3cccnc23)c([N+](=O)[O-])c1 | inconclusive: 13 µM [inhibitor, partial curve, poor fit] |
| CCOC(=O)C(=NC1CCS(=O)(=O)C1)NNc1ccccc1Cl (stereo not drawn) | inactive |
| O=C(Nc1cccc2cccnc12)c1cc(F)c(F)cc1Cl | inconclusive: 1.78 µM [activator, full curve, poor fit] |
| CC(Cc1cccnc1)NC(=O)c1ccccc1OC1CCN(S(C)(=O)=O)CC1 (stereo not drawn) | inconclusive: 18.3 µM [inhibitor, partial curve, poor fit] |

| Compound | Potency |
| --- | --- |
| COc1ccc(N(C(=O)c2ccc3c(c2)OCO3)C2C=CS(=O)(=O)C2)c(OC)c1 (stereo not drawn) | inactive |
| O=C(Cc1ccc([N+](=O)[O-])cc1)Nc1ccc(Cl)cc1 | inactive |
| COc1cccc(-n2cc(CNCc3c(C(=O)N(C)C)nc4ccc(Cl)cn34)cn2)c1 | inconclusive: 29.1 µM [inhibitor, single point] |
| COc1ccc(N2CCN(C(=S)Nc3cccc(C)c3C)CC2)cc1 | inactive |
| COCC1=C(C(=O)OC)C(c2ccco2)n2ncnc2N1 (stereo not drawn) | inconclusive: 6.51 µM [inhibitor, partial curve, poor fit] |
| CC1(C)CC(=O)C=C(NCc2ccccc2)C1 | inactive |
| Cc1csc(NC(=O)CSc2nnc(-c3ccoc3C)n2CCc2ccccc2)n1 | inconclusive: 18.4 µM [inhibitor, single point] |
| O=C(COc1ccc(Cl)cc1)Nc1nc(-c2ccc(S(=O)(=O)N3CCOCC3)cc2)cs1 | inconclusive: 16.4 µM [inhibitor, single point] |
| COc1ccc(S(=O)(=O)N2CCCC(C(=O)N3CCN(C)CC3)C2)cc1Cl (stereo not drawn) | inactive |
| COc1ccc(C(=O)On2c(-c3ccc(Br)cc3)nc3ccccc3c2=O)cc1 | inconclusive: 29.1 µM [inhibitor, single point] |
| CCC1CCc2sc(C(=O)NCc3ccccn3)cc2C1 (stereo not drawn) | inconclusive: 18.3 µM [activator, partial curve] |
| CC(=O)c1cccc(CN2CCC(CO)(CCOc3ccccc3)CC2)c1 | inactive |
| COc1cc(C2=NOC(C(=O)Nc3ccc(C(C)=O)cc3)C2)cc(OC)c1OC (stereo not drawn) | inconclusive: 18.4 µM [activator, single point] |
| CC(C)(C)c1ccc(C(=O)NCC(=O)OCC(=O)NC(=O)NC2CCCC2)cc1 | inconclusive: 35.5 µM [activator, single point] |
| CS(=O)(=O)N1CCCC(c2nc(-c3ccc(S(=O)(=O)NCc4ccccc4)cc3)no2)C1 (stereo not drawn) | active: 3.66 µM |
| COc1ccc(C(=O)N2CCc3cc(OC)c(OC)cc3C2c2ccc(OC)c(OC)c2)cc1 (stereo not drawn) | inactive |
| COC(=O)c1c(-c2ccc(F)cc2)noc1N | inconclusive: 32.6 µM [activator, partial curve, poor fit] |
| COc1ccc(/C=N/Nc2nc(N3CCCC3)nc(N3CCCC3)n2)c(OC)c1OC | inconclusive: 16.4 µM [inhibitor, single point] |
| Cc1onc(-c2c(Cl)cccc2Cl)c1C(=O)N1CCCc2ccccc21 | inconclusive: 0.0058 µM [inhibitor, full curve, poor fit] |
| COc1ccc(NS(=O)(=O)c2ccc3c(c2)oc(=O)n3C)cc1Cl | inactive |
| COc1ccccc1N1CCN(C(=O)CCn2c(=O)[nH]c3ccsc3c2=O)CC1 | inconclusive: 0.206 µM [inhibitor, full curve, poor fit] |
| Cc1cccc(CNc2ncnc3ccc(-c4ccc5c(c4)OCCO5)cc23)c1 | inconclusive: 9.2 µM [inhibitor, partial curve, poor fit] |
| O=C(Nc1cccnc1)c1cccc(S(=O)(=O)N2CCc3ccccc32)c1 | inconclusive: 20.6 µM [inhibitor, partial curve] |

| Compound | Potency |
| --- | --- |
| COc1ccccc1/C=C1\SC(=S)N(CCC(=O)NNC(=O)c2ccccc2O)C1=O | inconclusive: 14.6 µM [inhibitor, partial curve] |
| CC(C)(C)OC(=O)C[C@H]1C/C=C\C[C@@H](CC(=O)N(CCO)Cc2ccccc2)C(=O)N2CCC[C@H]2COC1=O | active: 23.1 µM |
| O=C(Nc1ccccc1)c1nc[nH]c1C(=O)NCCN(CCNC(=O)c1[nH]cnc1C(=O)Nc1ccccc1)CCNC(=O)c1[nH]cnc1C(=O)Nc1ccccc1 | inconclusive: 23.1 µM [inhibitor, single point] |
| Cc1ccc(NS(=O)(=O)c2cc(NC(=O)C(C)Oc3ccccc3)ccc2C)c(C)c1 (stereo not drawn) | inconclusive: 29.1 µM [inhibitor, partial curve, poor fit] |
| Clc1ccc(C[n+]2cc(-c3ccccc3)n3c2CCC3)cc1Cl | inconclusive: 8.2 µM [inhibitor, partial curve, poor fit] |
| CCN(CC)S(=O)(=O)c1ccc(NC(=O)CN(c2ccc(OC)cc2OC)S(C)(=O)=O)cc1 | inconclusive: 20.6 µM [inhibitor, partial curve, poor fit] |
| COc1ccccc1N1CCN(C(=O)C2CCN(C(=O)c3ccccc3C)CC2)CC1 | inconclusive: 20.6 µM [inhibitor, single point] |
| Oc1oc(-c2ccc(Br)cc2)nc1/C=N/c1ccccn1 | inconclusive: 13 µM [activator, partial curve] |
| CCN1CCN(C(c2cccnc2)c2cc(Cl)c3cccnc3c2O)CC1 (stereo not drawn) | inconclusive: 29.1 µM [activator, single point] |
| OC1(c2cccc(F)c2)CCN(Cc2ccncc2)CC1 | inactive |
| CC(=O)c1sc(NC(=O)C2CC(=O)N(Cc3ccco3)C2)nc1-c1ccccc1 (stereo not drawn) | inactive |
| Cc1ccc(NC(=O)CSc2nc3c([nH]c4ccccc43)c(=O)n2C)cc1 | inconclusive: 13 µM [inhibitor, partial curve, poor fit] |
| Cc1cccc(CNc2ncnc3ccc(-c4ccoc4)cc23)c1 | inconclusive: 0.82 µM [inhibitor, full curve, poor fit] |
| COC(=O)c1sccc1N/N=C(\C)c1ccc(F)c(Cl)c1 | inconclusive: 16.4 µM [activator, partial curve] |
| O=C(c1cc(COc2ccc(F)cc2F)on1)N1CCCC(c2ccccc2)C1 (stereo not drawn) | inconclusive: 23.1 µM [activator, partial curve, poor fit] |
| COc1ccc(NC(=O)CN(C)C(=O)c2cc(-c3ccccc3)nc3ccccc23)cc1 | inconclusive: 20 µM [inhibitor, single point] |
| COC(=O)c1cc2c(C)cc3ccc(C)cn3c-2c1C(=O)OC | inconclusive: 11.6 µM [inhibitor, partial curve] |
| Cc1cc(N=Cc2c(O)n(-c3ccc4c(c3)OCO4)c(=O)c3ccccc23)ccn1 | inconclusive: 2.91 µM [inhibitor, full curve] |
| COC(C/C=C/C(=O)COCc1ccccc1)OC | inactive |
| S=C(NCc1ccc(Cl)cc1)Nc1ccccc1Cl | inactive |
| CCC(=O)OCCNc1cc(Sc2nc3ccccc3[nH]2)c2nonc2c1[N+](=O)[O-] | inactive |
| Cc1ccccc1N1CCN(CC(=O)Nc2ccccc2C(=O)NC2CC2)CC1 | active: 20.6 µM |
